The assay has as its system HEK293A TEAD-LUC reporter. Put plainly: TEAD-luciferase reporter activity (YAP activation), robust Z score vs plate; higher = stronger YAP/TEAD activation. The conditions noted are these: 24 h.

Where a name gives a salt, the structure may show the parent alone. The list shows a part of the results. This data set is noisy: repeats of one test often differ as much as different tests do.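 In a drug-repurposing library screen, luminescence reads luciferase driven by eight TEAD-binding elements, stably integrated into human kidney-derived cells. Compounds scoring over five robust Z scores above the plate mean are called hits.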

As for `O=C(Nc1ccccc1)OCC1(COC(=O)Nc2ccccc2)CCCC1`, the TEAD-luciferase reporter activity is inactive: 1.72 (compound concentration: 200 nM), inactive: -1.37 (compound concentration: 2 uM) and inactive: 1.9 (compound concentration: 10 uM).

Consider `CCCCC(CC)C/N=C(/N)N/C(N)=N/CCCCCC/N=C(/N)N/C(N)=N/CC(CC)CCCC` (stereo unspecified) [Alexidine dihydrochloride], for which the TEAD-luciferase reporter activity (compound concentration: 200 nM) was inactive: 1.66, the TEAD-luciferase reporter activity (compound concentration: 2 uM) was inactive: -1.37 and the TEAD-luciferase reporter activity (compound concentration: 10 uM) is inactive: -1.17.

As to `Cc1cc(C)c(C(=O)COC(=O)Cn2cnc3c2c(=O)n(C)c(=O)n3C)cc1C`, the TEAD-luciferase reporter activity (compound concentration: 200 nM) was inactive: 0.0301, the TEAD-luciferase reporter activity (compound concentration: 2 uM) is inactive: -0.851 and the TEAD-luciferase reporter activity (compound concentration: 10 uM) was inactive: -1.1.

On to `CN(C)CCC(Oc1ccccc1OCc1ccccc1)c1ccccc1` (stereo unspecified), for which the TEAD-luciferase reporter activity is, setting by setting: (compound concentration: 200 nM) inactive: -1.36; (compound concentration: 2 uM) inactive: -1.05; (compound concentration: 10 uM) inactive: 1.61.

In the case of `Cc1nc(Cl)c(Cl)n1CCCCN1CCN(c2ncc(F)cn2)CC1`, the TEAD-luciferase reporter activity by setting is: (compound concentration: 200 nM) inactive: -0.168; (compound concentration: 2 uM) inactive: -1.1; (compound concentration: 10 uM) inactive: 1.93.

Regarding `CCOP(=O)(OCC)C(CNc1ccc(C)nc1C)c1cc(C)c(O)c(OC)c1` (stereo unspecified), the TEAD-luciferase reporter activity was inactive: -0.174 (compound concentration: 200 nM), inactive: 0.201 (compound concentration: 2 uM) and inactive: 2.96 (compound concentration: 10 uM).

Turning to `CC(C)C[C@H]1C(=O)O[C@H](Cc2ccc(N3CCOCC3)cc2)C(=O)N(C)[C@@H](CC(C)C)C(=O)O[C@H](C)C(=O)N(C)[C@@H](CC(C)C)C(=O)O[C@H](Cc2ccc(N3CCOCC3)cc2)C(=O)N(C)[C@@H](CC(C)C)C(=O)O[C@H](C)C(=O)N1C` [Emodepside], the TEAD-luciferase reporter activity was inactive: 0.123 (compound concentration: 200 nM), inactive: -1.01 (compound concentration: 2 uM) and inactive: 1.03 (compound concentration: 10 uM).

For `COC(=O)C1=C(C)NC(C)=C(C(=O)OCCCN2CCC(c3ccccc3)(c3ccccc3)CC2)[C@@H]1c1cccc([N+](=O)[O-])c1` [dexniguldipine], the TEAD-luciferase reporter activity (compound concentration: 200 nM) is inactive: -0.533, the TEAD-luciferase reporter activity (compound concentration: 2 uM) is inactive: -1.64 and the TEAD-luciferase reporter activity (compound concentration: 10 uM) was inactive: -0.253.

Turning to `CCC(C)[C@H](NC(=O)C[C@H](O)[C@H](CC1CCCCC1)NC(=O)CCNC(=O)[C@H](Cc1ccccc1)NC(=O)N1CCC(N)CC1)C(=O)NCc1cnc(C)nc1N` (stereo partly specified), the TEAD-luciferase reporter activity (compound concentration: 200 nM) was inactive: -0.543, the TEAD-luciferase reporter activity (compound concentration: 2 uM) was inactive: -0.568 and the TEAD-luciferase reporter activity (compound concentration: 10 uM) is inactive: -0.095.

For `N#Cc1ccc(C=O)cn1`, the TEAD-luciferase reporter activity (compound concentration: 200 nM) was inactive: -0.313, the TEAD-luciferase reporter activity (compound concentration: 2 uM) was inactive: -0.928 and the TEAD-luciferase reporter activity (compound concentration: 10 uM) was inactive: 0.644.

With `COC(=O)c1ccc(O)c(N)c1`, the TEAD-luciferase reporter activity reads like this: (compound concentration: 200 nM) inactive: 0.22; (compound concentration: 2 uM) inactive: -2.18; (compound concentration: 10 uM) inactive: -1.06.

Regarding `O=C(CCCCCl)NNC(=O)N1Cc2ccccc2Oc2ccc(Cl)cc21` [pinadoline], the TEAD-luciferase reporter activity is inactive: -0.653 (compound concentration: 200 nM), inactive: -1.23 (compound concentration: 2 uM) and inactive: 3.23 (compound concentration: 10 uM).

Regarding `CC(=O)N1Cc2ccccc2CC2(CCCCN2CC2CCCC2)C1` (stereo unspecified), the TEAD-luciferase reporter activity reads like this: (compound concentration: 200 nM) inactive: 0.0335; (compound concentration: 10 uM) inactive: -0.572.

For `c1ccc(-c2ncc3cc(-n4ccnc4)ccc3n2)cc1`, the TEAD-luciferase reporter activity by setting is: (compound concentration: 200 nM) inactive: 2.01; (compound concentration: 2 uM) inactive: -0.389; (compound concentration: 10 uM) inactive: 2.65.

The record behind these values is the supplement of paper PMC10735217.
